In patent publication USRE48959:
Results are given in words; binding and its absence hold for the method and conditions named. Some results given as binding are weak or reduced against the parent protein; the word gives no strength.

T1: human LIV-1 (human) (UniProt Q13433)
T1 sequence: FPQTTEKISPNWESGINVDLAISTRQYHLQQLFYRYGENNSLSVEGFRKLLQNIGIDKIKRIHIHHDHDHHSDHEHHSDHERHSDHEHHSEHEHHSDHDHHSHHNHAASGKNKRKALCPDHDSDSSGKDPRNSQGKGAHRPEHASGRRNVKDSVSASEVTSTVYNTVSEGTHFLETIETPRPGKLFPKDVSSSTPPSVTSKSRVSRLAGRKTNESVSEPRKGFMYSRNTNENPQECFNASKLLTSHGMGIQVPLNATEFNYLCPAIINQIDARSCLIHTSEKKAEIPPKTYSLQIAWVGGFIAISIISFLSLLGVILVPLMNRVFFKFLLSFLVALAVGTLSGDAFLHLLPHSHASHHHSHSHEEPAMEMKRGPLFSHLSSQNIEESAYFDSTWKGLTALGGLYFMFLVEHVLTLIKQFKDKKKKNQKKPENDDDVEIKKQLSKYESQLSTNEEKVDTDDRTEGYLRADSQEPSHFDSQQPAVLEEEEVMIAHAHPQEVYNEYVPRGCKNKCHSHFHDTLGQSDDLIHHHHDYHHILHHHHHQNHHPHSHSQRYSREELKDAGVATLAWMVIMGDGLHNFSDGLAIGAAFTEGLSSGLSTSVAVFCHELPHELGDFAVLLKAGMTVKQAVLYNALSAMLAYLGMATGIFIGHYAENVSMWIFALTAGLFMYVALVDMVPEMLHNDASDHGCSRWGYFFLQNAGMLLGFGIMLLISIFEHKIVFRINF

B1: humanized BR2-14a antibody HBLB (hLIV-1 HB + hLIV-1 LB) (antibody, human IgG1, V domains shown)
VH: QVQLVQSGAEVKKPGASVKVSCKASGYTIEDYYMHWVRQAPGQGLEWMGWIDPENGDTEYAPTFQGRVTMTRDTSINTAYMELSRLRSDDTAVYYCARHDAHYGTWFAYWGQGTLVTVSS
VL: DVVMTQSPLSLPVTLGQPASISCRSSQSIIRNDGNTYLEWYQQRPGQSPRRLIYRVSNRFSGVPDRFSGSGSGTDFTLKISRVEAEDVGVYYCFQGSHVPYTFGGGTKVEIKR
B2: humanized BR2-14a antibody HELE (hLIV-1 HE + hLIV-1 LE) (antibody, V domains shown)
VH: QVQLVQSGAEVKKPGASVKVSCKASGFNIEDYYMHWVRQAPGQGLEWIGWIDPENGDTEYAPTFQGKATMTADTSINTAYMELSRLRSDDTAVYYCNVHDAHYGTWFAYWGQGTLVTVSS
VL: DVVMTQSPLSLPVTLGQPASISCRSSQSIIRNDGNTYLEWFQQRPGQSPRLLIYRVSNRFSGVPDRFSGSGSGTDFTLKISRVEAEDVGVYYCFQGSHVPYTFGGGTKVEIKR
B3: humanized BR2-14a antibody HBLB S239C (antibody, V domains shown)
VH: QVQLVQSGAEVKKPGASVKVSCKASGYTIEDYYMHWVRQAPGQGLEWMGWIDPENGDTEYAPTFQGRVTMTRDTSINTAYMELSRLRSDDTAVYYCARHDAHYGTWFAYWGQGTLVTVSS
VL: DVVMTQSPLSLPVTLGQPASISCRSSQSIIRNDGNTYLEWYQQRPGQSPRRLIYRVSNRFSGVPDRFSGSGSGTDFTLKISRVEAEDVGVYYCFQGSHVPYTFGGGTKVEIKR
B4: humanized BR2-22a antibody HELF (hLIV-22 HE + hLIV-22 LF) (antibody, V domains shown)
VH: QVQLVQSGAEVKKPGASVKVSCKASGLNIEDYYMHWVRQAPGQGLEWIGWIDPENGDTEYGPKFQGKATMTADTSINTAYMELSRLRSDDTAVYYCTVHNAHYGTWFAYWGQGTLVTVSS
VL: DVVMTQSPLSLPVTLGQPASISCRSSQSLLHSSGNTYLEWYLQRPGQSPKPLIYKISTRFSGVPDRFSGSGSGTDFTLKISRVEAEDVGVYYCFQGSHVPYTFGGGTKVEIKR

Experiments:
[1] = target: T1, human LIV-1 (human); experiment: competition flow cytometry on MCF7 cells (native human LIV-1); competitor AF647-labelled BR2-14a; FIG. 3
[2] = target: T1, human LIV-1 (human); experiment: binding curves on CHO cells expressing human LIV-1, FIG. 2
[3] = target: T1, human LIV-1 (human); experiment: competition flow cytometry on CHO cells expressing recombinant human LIV-1; competitor labelled BR2-14a; FIG. 5
[4] = target: T1, human LIV-1 (human); experiment: competition binding assays, FIG. 17; competitor labelled BR2-22a
[5] = target: T1, human LIV-1 (human); experiment: competition flow cytometry on CHO cells expressing recombinant LIV-1; competitor labelled BR2-22a; FIG. 17
[6] = target: T1, human LIV-1 (human); experiment: competition flow cytometry on CHO cells expressing recombinant LIV-1; competitor labelled BR2-22a

Binder	binding [1]	binding [2]	binding [3]	binding [4]	binding [5]	binding [6]
B1	binds	binds	binds			
B2	binds	binds				
B3			binds			
B4				binds	binds	binds
